Measurements reported in article PMC5014551.

What was measured:
[1] = molecular target: Nfu1-Strep (S. cerevisiae); assay: co-IP; Strep-tag affinity purification: isolated yeast mitochondria solubilized with 0.1% DDM in 50 mM NaH2PO4 pH 8.0, 300 mM NaCl; lysate on Strep-Tactin superflow beads 16 hr at 4°C; eluted with 2.5 mM desthiobiotin; immunoblotting; also done in cells lacking Bol1 and Bol3 and in isa2 deletion cells (enhanced co-purification of clients)
[2] = molecular target: G^194C Nfu1 mutant, Strep-tagged (S. cerevisiae); assay: as above
[3] = molecular target: Nfu1 AxxA mutant, Strep-tagged (S. cerevisiae); assay: as above
[4] = molecular target: Nfu1-Strep (S. cerevisiae); assay: SEC; mitochondrial lysates (sonication, 50 mM NaPO4, 150 mM NaCl, pH 7.0) of Nfu1-Strep or Bol3-Strep cells chromatographed separately on HiLoad Superdex 75 PG 16/600; fractions immunoblotted; DTT left the Nfu1 elution unaffected, dithionite attenuated the apparent dimer

B1: Isa1 (protein, UniProt Q07821 1-250)
chain: MINTGRSRNSVLLAHRFLSTGGFWRGGTNGTMSRTINNVNPFKLKFIPKTVPAAADSVSPDSQRPGKKPFKFIVSNQSKSSKASKSPKWSSYAFPSRETIKSHEEAIKKQNKAIDEQIAAAVSKNDCSCTEPPKKRKRKLRPRKALITLSPKAIKHLRALLAQPEPKLIRVSARNRGCSGLTYDLQYITEPGKFDEVVEQDGVKIVIDSKALFSIIGSEMDWIDDKLASKFVFKNPNSKGTCGCGESFMV
- binding [1]: binds

B2: WT Aco1 (expressed in the nfu1 deletion background, Figure 5E) (protein, UniProt P19414 17-778)
chain: ATVSNLTRDSKVNQNLLEDHSFINYKQNVETLDIVRKRLNRPFTYAEKILYGHLDDPHGQDIQRGVSYLKLRPDRVACQDATAQMAILQFMSAGLPQVAKPVTVHCDHLIQAQVGGEKDLKRAIDLNKEVYDFLASATAKYNMGFWKPGSGIIHQIVLENYAFPGALIIGTDSHTPNAGGLGQLAIGVGGADAVDVMAGRPWELKAPKILGVKLTGKMNGWTSPKDIILKLAGITTVKGGTGKIVEYFGDGVDTFSATGMGTICNMGAEIGATTSVFPFNKSMIEYLEATGRGKIADFAKLYHKDLLSADKDAEYDEVVEIDLNTLEPYINGPFTPDLATPVSKMKEVAVANNWPLDVRVGLIGSCTNSSYEDMSRSASIVKDAAAHGLKSKTIFTVTPGSEQIRATIERDGQLETFKEFGGIVLANACGPCIGQWDRRDIKKGDKNTIVSSYNRNFTSRNDGNPQTHAFVASPELVTAFAIAGDLRFNPLTDKLKDKDGNEFMLKPPHGDGLPQRGYDAGENTYQAPPADRSTVEVKVSPTSDRLQLLKPFKPWDGKDAKDMPILIKAVGKTTTDHISMAGPWLKYRGHLENISNNYMIGAINAENKKANCVKNVYTGEYKGVPDTARDYRDQGIKWVVIGDENFGEGSSREHAALEPRFLGGFAIITKSFARIHETNLKKQGLLPLNFKNPADYDKINPDDRIDILGLAELAPGKPVTMRVHPKNGKPWDAVLTHTFNDEQIEWFKYGSALNKIKADEKK
- binding [1]: binds

B3: Isa2 (protein, UniProt Q12425 1-185)
chain: MQAKLLFTRLNFRRPSTTLRQFPLTCFLFHSKAFYSDLVTKEPLITPKRIINKTPGLNLSISERASNRLAEIYRNSKENLRISVESGGCHGFQYNLTLEPATKPDIKNDVKDKEFSDDLDDDDSKDIIYVLPEDKGRVIIDSKSLNILNNTTLTYTNELIGSSFKIINGSLKSSCGCGSSFDIEN
- binding [1]: binds

B4: Aco1 (protein, UniProt P19414 17-778)
chain: B2 chain
- binding [2]: binds
- binding [1]: binds
- binding [3]: no binding

B5: Aco2-HA (protein, UniProt P39533 15-789)
chain: ATHANMFPSVSKNFQTKVPPYAKLLTNLDKIKQITNNAPLTLAEKILYSHLCDPEESITSSDLSTIRGNKYLKLNPDRVAMQDASAQMALLQFMTTGLNQTSVPASIHCDHLIVGKDGETKDLPSSIATNQEVFDFLESCAKRYGIQFWGPGSGIIHQIVLENFSAPGLMMLGTDSHTPNAGGLGAIAIGVGGADAVDALTGTPWELKAPKILGVKLTGKLNGWSTPKDVITKLAGLLTVRGGTGYIVEYFGEGVSTLSCTGMATICNMGAEIGATTSTFPYQEAHKRYLQATNRAEVAEAADVALNKFNFLRADKDAQYDKVIEIDLSAIEPHVNGPFTPDLSTPISQYAEKSLKENWPQKVSAGLIGSCTNSSYQDMSRVVDLVKQASKAGLKPRIPFFVTPGSEQIRATLERDGIIDIFQENGAKVLANACGPCIGQWNREDVSKTSKETNTIFTSFNRNFRARNDGNRNTMNFLTSPEIVTAMSYSGDAQFNPLTDSIKLPNGKDFKFQPPKGDELPKRGFEHGRDKFYPEMDPKPDSNVEIKVDPNSDRLQLLEPFKPWNGKELKTNVLLKVEGKCTTDHISAAGVWLKYKGHLENISYNTLIGAQNKETGEVNKAYDLDGTEYDIPGLMMKWKSDGRPWTVIAEHNYGEGSAREHAALSPRFLGGEILLVKSFARIHETNLKKQGVLPLTFANESDYDKISSGDVLETLNLVDMIAKDGNNGGEIDVKITKPNGESFTIKAKHTMSKDQIDFFKAGSAINYIGNIRRNE
- binding [1]: binds

B6: Lys4-HA (protein, UniProt P49367 18-693)
chain: LKGQNLTEKIVQSYAVNLPEGKVVHSGDYVSIKPAHCMSHDNSWPVALKFMGLGATKIKNPSQIVTTLDHDIQNKSEKNLTKYKNIENFAKKHHIDHYPAGRGIGHQIMIEEGYAFPLNMTVASDSHSNTYGGLGSLGTPIVRTDAAAIWATGQTWWQIPPVAQVELKGQLPQGVSGKDIIVALCGLFNNDQVLNHAIEFTGDSLNALPIDHRLTIANMTTEWGALSGLFPVDKTLIDWYKNRLQKLGTNNHPRINPKTIRALEEKAKIPKADKDAHYAKKLIIDLATLTHYVSGPNSVKVSNTVQDLSQQDIKINKAYLVSCTNSRLSDLQSAADVVCPTGDLNKVNKVAPGVEFYVAAASSEIEADARKSGAWEKLLKAGCIPLPSGCGPCIGLGAGLLEPGEVGISATNRNFKGRMGSKDALAYLASPAVVAASAVLGKISSPAEVLSTSEIPFSGVKTEIIENPVVEEEVNAQTEAPKQSVEILEGFPREFSGELVLCDADNINTDGIYPGKYTYQDDVPKEKMAQVCMENYDAEFRTKVHPGDIVVSGFNFGTGSSREQAATALLAKGINLVVSGSFGNIFSRNSINNALLTLEIPALIKKLREKYQGAPKELTRRTGWFLKWDVADAKVVVTEGSLDGPVILEQKVGELGKNLQEIIVKGGLEGWVKSQL
- binding [1]: binds

B7: Sdh2 (protein, UniProt P21801 21-266)
chain: TATTAAATHTPRLKTFKVYRWNPDEPSAKPHLQSYQVDLNDCGPMVLDALLKIKDEQDSTLTFRRSCREGICGSCAMNIGGRNTLACICKIDQNESKQLKIYPLPHMFIVKDLVPDLTNFYQQYKSIQPYLQRSSFPKDGTEVLQSIEDRKKLDGLYECILCACCSTSCPSYWWNQEQYLGPAVLMQAYRWLIDSRDQATKTRKAMLNNSMSLYRCHTIMNCTRTCPKGLNPGLAIAEIKKSLAFA
- binding [1]: binds

B8: Lys4 chromosomally tagged with GFP (protein, UniProt P49367 18-693)
chain: B6 chain
- binding [1]: binds
- binding [3]: binds

B9: Rip1 (protein, UniProt P08067 31-215)
chain: KSTYRTPNFDDVLKENNDADKGRSYAYFMVGAMGLLSSAGAKSTVETFISSMTATADVLAMAKVEVNLAAIPLGKNVVVKWQGKPVFIRHRTPHEIQEANSVDMSALKDPQTDADRVKDPQWLIMLGICTHLGCVPIGEAGDFGGWFCPCHGSHYDISGRIRKGPAPLNLEIPAYEFDGDKVIVG
- binding [1]: no binding

B10: Bol3-Strep (protein, UniProt P39724 1-118)
chain: MKLPQTMLRSISVKHVRWPRILTGSKLWYSTQMAMTPEEKMITDKLQQELEPEVCKVQDVSGGCGSMFAINITSKKFNGLSLIKQHQLVNRILRDDISRWHGLQLTTKKSTGKGPASS
- binding [4]: no binding

No constants are given. Whether binding was seen depends on the method and setting. For some of these results: Binding seen in cells or lysates may run through a third protein. For some of these results: Binding can be weak; no strength is given. For some of these results: Tags and fused reporters may be left off the sequences shown.
